Some peptides are written in HELM: one residue between dots, names in brackets for other building blocks, links after the first $.
Experiment: general procedure: Fmoc solid-phase peptide synthesis; Polydimethylacrylamide resin (Cambridge Research Biochemicals) with 4-hydroxymethylbenzoic acid linker; preformed symmetrical anhydrides; DCC/HOBt; ONp active esters
Settings: analytical hplc
[1] = whole synthesis, scale of the general procedure 2.96 mmol

Substance	final HPLC purity [1]	final HPLC purity (cyclisation step)
Cyclo (Gly-Gln-Trp-Phe-(R)Gly[ANC]Leu-Met)	97%	–
Cyclo(Gln-Npa-Phe-(R)Gly[ANC-2]Leu-Met)	98%	–
PEPTIDE1{Q.W.F.G.L.M}$PEPTIDE1,PEPTIDE1,6:R2-1:R1$$$V2.0	>98%	–
cyclo (Gln-Trp-Phe(R)Gly [ANC-2]Leu-Met)	–	92%
